Structures can show the parent of a compound that is named as a salt. Some of the results follow. Repeats in this data set agree poorly, so a single value says little.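 A screen tested FDA-approved drugs combined with one-eighth-MIC colistin against a clinical mcr-1-positive, multidrug-resistant E. coli isolate, measuring OD600 at 24 h. Controls were untreated bacteria (growth) and broth alone (blank). An OD600 under 0.2 marked a combination as active.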
The compounds below were run on Escherichia coli 42 (mcr-1-positive clinical isolate) (assay: OD600 after 24 h growth with compound plus colistin (absorbance units (OD600)); higher = more bacterial growth (less inhibition)). Conditions: first compound 25 µM; colistin concentration 0.5 ug/mL; incubation time 24 h; 37 °C.

OD600, inactive:
NC(=O)c1cnccn1 [Pyrazinamide] + CCC(C)CCCC(=O)N[C@@H](CCN)C(=O)N[C@H](C(=O)N[C@@H](CCN)C(=O)N[C@H]1CCNC(=O)[C@H]([C@@H](C)O)NC(=O)[C@H](CCN)NC(=O)[C@H](CCN)NC(=O)[C@H](CC(C)C)NC(=O)[C@@H](CC(C)C)NC(=O)[C@H](CCN)NC1=O)[C@@H](C)O [colistin] 0.908
C[Se]CC[C@H](N)C(=O)O [Selenomethionine] + CCC(C)CCCC(=O)N[C@@H](CCN)C(=O)N[C@H](C(=O)N[C@@H](CCN)C(=O)N[C@H]1CCNC(=O)[C@H]([C@@H](C)O)NC(=O)[C@H](CCN)NC(=O)[C@H](CCN)NC(=O)[C@H](CC(C)C)NC(=O)[C@@H](CC(C)C)NC(=O)[C@H](CCN)NC1=O)[C@@H](C)O [colistin] 0.999
OC(CNCC(O)C1CCc2cc(F)ccc2O1)C1CCc2cc(F)ccc2O1 (centres undefined) [Nebivolol hydrochloride] + CCC(C)CCCC(=O)N[C@@H](CCN)C(=O)N[C@H](C(=O)N[C@@H](CCN)C(=O)N[C@H]1CCNC(=O)[C@H]([C@@H](C)O)NC(=O)[C@H](CCN)NC(=O)[C@H](CCN)NC(=O)[C@H](CC(C)C)NC(=O)[C@@H](CC(C)C)NC(=O)[C@H](CCN)NC1=O)[C@@H](C)O [colistin] 0.841
NNC(=O)c1ccncc1 [Isoniazid] + CCC(C)CCCC(=O)N[C@@H](CCN)C(=O)N[C@H](C(=O)N[C@@H](CCN)C(=O)N[C@H]1CCNC(=O)[C@H]([C@@H](C)O)NC(=O)[C@H](CCN)NC(=O)[C@H](CCN)NC(=O)[C@H](CC(C)C)NC(=O)[C@@H](CC(C)C)NC(=O)[C@H](CCN)NC1=O)[C@@H](C)O [colistin] 1.29
